Reference: publication doi:10.1101/2022.03.04.22271462
These are yes or no findings as the source states them, for the method shown. Binding seen in cells or lysates may run through a third protein. Some binding calls cover weakened binding; strength is not graded here.

By UniProt entry, the sequences of proteins in these tests, tags left out. Where a name states a change or a piece, a line headed by the entry shows the natural chain unless it says otherwise. Chains listed by the source or under a name are the forms on record and can include a tag or linker.
UniProt Q9Y6X0: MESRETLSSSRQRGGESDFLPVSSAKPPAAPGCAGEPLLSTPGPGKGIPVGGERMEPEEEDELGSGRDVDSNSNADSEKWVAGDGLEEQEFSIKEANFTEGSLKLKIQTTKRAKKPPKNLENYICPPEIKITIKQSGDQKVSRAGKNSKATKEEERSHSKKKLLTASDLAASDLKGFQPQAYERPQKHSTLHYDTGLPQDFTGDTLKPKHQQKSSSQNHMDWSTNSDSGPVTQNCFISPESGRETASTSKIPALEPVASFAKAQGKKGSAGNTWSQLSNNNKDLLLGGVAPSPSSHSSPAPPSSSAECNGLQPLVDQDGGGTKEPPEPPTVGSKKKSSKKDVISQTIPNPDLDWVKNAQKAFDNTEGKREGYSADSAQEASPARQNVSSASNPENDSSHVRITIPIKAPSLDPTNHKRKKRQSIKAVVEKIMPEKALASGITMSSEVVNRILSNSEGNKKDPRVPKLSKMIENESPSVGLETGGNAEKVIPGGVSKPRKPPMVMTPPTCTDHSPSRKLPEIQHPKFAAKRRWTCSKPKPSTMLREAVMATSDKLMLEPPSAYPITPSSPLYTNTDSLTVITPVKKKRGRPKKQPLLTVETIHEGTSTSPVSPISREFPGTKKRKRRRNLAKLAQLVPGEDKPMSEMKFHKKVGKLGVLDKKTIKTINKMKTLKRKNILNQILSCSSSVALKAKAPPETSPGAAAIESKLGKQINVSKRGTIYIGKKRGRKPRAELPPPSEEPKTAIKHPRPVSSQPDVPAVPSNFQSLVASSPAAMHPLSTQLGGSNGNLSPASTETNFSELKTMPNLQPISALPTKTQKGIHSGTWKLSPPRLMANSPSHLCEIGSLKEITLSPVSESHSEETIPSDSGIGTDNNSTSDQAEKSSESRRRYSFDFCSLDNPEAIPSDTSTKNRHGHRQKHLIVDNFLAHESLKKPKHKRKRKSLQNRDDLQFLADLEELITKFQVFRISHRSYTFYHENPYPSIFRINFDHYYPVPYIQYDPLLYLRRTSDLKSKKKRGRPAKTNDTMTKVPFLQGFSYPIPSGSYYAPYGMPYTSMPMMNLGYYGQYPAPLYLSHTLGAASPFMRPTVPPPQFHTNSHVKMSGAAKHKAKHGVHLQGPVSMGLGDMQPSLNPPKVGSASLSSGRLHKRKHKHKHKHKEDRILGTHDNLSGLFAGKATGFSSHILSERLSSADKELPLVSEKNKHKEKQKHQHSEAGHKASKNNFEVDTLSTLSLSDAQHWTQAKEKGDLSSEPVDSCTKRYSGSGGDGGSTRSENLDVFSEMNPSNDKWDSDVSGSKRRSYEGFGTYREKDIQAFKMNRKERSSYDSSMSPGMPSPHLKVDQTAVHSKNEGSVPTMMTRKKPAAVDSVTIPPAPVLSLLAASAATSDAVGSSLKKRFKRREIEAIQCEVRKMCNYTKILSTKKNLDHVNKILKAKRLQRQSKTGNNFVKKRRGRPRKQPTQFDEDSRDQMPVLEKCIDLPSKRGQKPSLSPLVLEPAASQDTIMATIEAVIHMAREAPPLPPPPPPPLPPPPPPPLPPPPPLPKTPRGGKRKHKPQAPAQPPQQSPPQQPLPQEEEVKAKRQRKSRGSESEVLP
FLAG-SETBP1 p.(Glu858Lys) (Q9Y6X0, form named): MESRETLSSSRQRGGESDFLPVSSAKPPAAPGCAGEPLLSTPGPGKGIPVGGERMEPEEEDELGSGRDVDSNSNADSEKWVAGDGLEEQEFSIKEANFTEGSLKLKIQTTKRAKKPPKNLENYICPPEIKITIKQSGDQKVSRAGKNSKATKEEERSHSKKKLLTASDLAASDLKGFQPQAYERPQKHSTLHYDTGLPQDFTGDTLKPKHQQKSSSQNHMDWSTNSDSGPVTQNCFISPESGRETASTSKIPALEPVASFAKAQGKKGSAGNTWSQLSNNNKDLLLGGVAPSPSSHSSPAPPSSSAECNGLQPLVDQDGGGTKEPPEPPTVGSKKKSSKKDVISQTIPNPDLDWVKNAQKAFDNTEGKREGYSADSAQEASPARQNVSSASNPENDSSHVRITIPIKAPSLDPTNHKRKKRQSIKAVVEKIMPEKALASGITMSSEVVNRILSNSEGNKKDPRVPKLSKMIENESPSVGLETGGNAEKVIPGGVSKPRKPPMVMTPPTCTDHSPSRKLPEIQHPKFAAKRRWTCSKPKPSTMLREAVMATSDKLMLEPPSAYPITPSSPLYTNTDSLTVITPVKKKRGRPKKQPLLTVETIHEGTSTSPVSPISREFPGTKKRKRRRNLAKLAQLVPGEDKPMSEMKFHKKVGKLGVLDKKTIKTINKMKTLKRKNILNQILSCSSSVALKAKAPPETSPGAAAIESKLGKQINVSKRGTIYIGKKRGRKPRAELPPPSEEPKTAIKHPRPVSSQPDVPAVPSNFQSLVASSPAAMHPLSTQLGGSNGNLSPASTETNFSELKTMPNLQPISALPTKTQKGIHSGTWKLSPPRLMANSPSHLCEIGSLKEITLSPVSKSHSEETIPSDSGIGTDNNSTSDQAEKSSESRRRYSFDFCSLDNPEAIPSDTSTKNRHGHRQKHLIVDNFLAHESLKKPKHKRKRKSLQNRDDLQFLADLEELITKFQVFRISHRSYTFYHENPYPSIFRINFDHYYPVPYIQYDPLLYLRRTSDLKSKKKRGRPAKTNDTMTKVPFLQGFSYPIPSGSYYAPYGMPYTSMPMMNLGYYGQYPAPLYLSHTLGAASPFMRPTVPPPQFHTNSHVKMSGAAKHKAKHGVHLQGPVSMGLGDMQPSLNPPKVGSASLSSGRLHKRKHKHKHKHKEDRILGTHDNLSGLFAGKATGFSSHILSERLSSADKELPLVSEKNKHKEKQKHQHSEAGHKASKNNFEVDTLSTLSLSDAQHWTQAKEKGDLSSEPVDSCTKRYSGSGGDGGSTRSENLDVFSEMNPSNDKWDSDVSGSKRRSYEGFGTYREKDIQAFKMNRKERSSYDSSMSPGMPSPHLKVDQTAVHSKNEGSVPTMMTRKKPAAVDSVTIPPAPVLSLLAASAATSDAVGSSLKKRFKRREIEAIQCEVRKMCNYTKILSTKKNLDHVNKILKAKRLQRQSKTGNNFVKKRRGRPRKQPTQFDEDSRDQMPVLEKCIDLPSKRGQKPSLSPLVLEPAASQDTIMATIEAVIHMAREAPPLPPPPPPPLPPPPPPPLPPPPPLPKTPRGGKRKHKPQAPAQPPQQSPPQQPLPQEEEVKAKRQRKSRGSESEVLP
FLAG-SETBP1 p.(Leu957Pro) (Q9Y6X0, form named): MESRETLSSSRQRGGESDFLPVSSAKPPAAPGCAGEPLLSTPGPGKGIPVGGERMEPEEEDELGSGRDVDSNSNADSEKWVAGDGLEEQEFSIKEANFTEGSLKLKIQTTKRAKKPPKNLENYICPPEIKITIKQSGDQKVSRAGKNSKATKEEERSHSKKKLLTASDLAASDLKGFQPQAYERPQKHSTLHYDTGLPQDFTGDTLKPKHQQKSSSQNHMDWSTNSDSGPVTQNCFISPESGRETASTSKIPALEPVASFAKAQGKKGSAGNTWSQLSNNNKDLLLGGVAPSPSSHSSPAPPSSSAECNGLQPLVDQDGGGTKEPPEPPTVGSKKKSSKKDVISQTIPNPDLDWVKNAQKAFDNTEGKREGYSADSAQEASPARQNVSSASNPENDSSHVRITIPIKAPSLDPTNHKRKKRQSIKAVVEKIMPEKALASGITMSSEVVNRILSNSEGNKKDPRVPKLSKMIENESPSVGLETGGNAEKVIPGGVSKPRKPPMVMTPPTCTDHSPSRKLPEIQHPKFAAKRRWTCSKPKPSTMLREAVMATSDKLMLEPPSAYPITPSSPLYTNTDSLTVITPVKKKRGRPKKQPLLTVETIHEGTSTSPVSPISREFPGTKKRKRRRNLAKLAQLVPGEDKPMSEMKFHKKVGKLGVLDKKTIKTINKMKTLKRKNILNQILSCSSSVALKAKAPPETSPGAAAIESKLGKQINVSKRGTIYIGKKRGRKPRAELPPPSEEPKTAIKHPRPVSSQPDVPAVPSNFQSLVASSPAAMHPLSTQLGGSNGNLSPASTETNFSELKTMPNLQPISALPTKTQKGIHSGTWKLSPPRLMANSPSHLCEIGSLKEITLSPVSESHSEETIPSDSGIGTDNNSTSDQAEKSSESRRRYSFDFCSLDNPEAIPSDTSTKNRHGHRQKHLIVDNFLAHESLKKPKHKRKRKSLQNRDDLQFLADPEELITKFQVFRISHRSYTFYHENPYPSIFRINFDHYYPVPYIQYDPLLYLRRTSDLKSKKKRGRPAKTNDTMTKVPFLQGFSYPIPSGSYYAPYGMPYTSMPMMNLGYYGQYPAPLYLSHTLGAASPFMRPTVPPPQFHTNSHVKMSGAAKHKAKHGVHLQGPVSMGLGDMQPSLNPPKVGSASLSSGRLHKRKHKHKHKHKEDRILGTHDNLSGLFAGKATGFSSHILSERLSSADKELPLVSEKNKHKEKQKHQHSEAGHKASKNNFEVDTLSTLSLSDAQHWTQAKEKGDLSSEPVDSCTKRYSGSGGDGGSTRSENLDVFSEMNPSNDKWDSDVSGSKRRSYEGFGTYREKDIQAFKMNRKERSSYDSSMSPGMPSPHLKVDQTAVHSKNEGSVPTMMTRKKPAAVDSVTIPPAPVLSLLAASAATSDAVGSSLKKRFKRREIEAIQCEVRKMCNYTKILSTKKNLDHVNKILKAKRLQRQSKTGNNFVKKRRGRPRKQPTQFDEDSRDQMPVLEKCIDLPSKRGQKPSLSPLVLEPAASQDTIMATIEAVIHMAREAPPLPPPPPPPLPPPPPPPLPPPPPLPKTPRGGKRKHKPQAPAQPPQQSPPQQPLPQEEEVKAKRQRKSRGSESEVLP
UniProt Q01105: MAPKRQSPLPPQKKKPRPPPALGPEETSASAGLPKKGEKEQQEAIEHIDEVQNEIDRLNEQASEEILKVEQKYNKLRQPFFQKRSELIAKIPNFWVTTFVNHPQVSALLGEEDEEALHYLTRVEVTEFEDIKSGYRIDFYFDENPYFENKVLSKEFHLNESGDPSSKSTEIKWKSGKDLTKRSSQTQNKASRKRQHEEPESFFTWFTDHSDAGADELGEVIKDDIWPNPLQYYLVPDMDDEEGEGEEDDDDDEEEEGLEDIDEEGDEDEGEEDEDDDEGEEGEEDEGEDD

What was measured:
Assay in all cases: co-IP
[1] = molecular target: FLAG-SETBP1 wild type (full-length SETBP1 with C-terminal Myc-DDK tag, pCMV-Entry-SETBP1) (human) (UniProt Q9Y6X0)
[2] = molecular target: FLAG-SETBP1 p.(Glu858Lys) (human) (UniProt Q9Y6X0)
[3] = molecular target: FLAG-SETBP1 p.(Leu957Pro) (human) (UniProt Q9Y6X0)
[4] = molecular target: FLAG-SETBP1 p.(Thr962del) (human) (UniProt Q9Y6X0)

Measured: binding

GFP-SET (from UniProt Q01105 1-290)
binds: all assays above
